Laboratory results taken from patent publication US20140017242A1, “ANTI-BRADYKININ B2 RECEPTOR (BKB2R) MONOCLONAL ANTIBODY” (Diamedica, Inc., priority 2010, published 2014).
No constants are given. Whether binding was seen depends on the method and setting. Some binding calls cover weakened binding; strength is not graded here. Where no end group is shown, it is not given here.

B1: humanized anti-BKB2R antibody L2/H1 (antibody, human IgG2, kappa, V domains shown)
VH: EVQLVESGGGLVQPGGSLRLSCAASGFTFSDYWMSWVRQAPGKGLEWVAEIRLKSDNYATHYAESVKGRFTISRDNAKNSLYLQMNSLRAEDTAVYYCTRDYYAMEYWGQGTLVTVSS
VL: DIVMTQSPLSLPVTPGEPASISCRSSQTIVHSNGKTYLEWYLQKPGQSPQLLIYKVSNRFSGVPDRFSGSGSGTEFTLKISRVEAEDVGVYYCFQASHVPYTFGQGTKLEIKR
B2: humanized anti-BKB2R antibody L2/H2 (antibody, human IgG2, kappa, V domains shown)
VH: EVQLVESGGGLVQPGGSLRLSCVASGFTFSDYWMSWVRQAPGKGLEWVAEIRLKSDNYATHYAESVKGRFTISRDDAKNSLYLQMNSLRAEDTAVYYCTRDYYAMEYWGQGTLVTVSS
VL: DIVMTQSPLSLPVTPGEPASISCRSSQTIVHSNGKTYLEWYLQKPGQSPQLLIYKVSNRFSGVPDRFSGSGSGTEFTLKISRVEAEDVGVYYCFQASHVPYTFGQGTKLEIKR
notes: also called H2/L2
B3: humanized anti-BKB2R antibody H38/L38 (antibody, human IgG2, kappa, V domains shown)
VH: EVQLLESGGGLVQPGGSLKLSCAVSGFTFSDYWMSWVRQAPGKGLEWVSEIRLKSDNYATHYADSVKGRFTISRDDSKNTLYLQMNSLRAEDTAVYYCTRDYYAMEYWGQGTLVTVSS
VL: DIVMTQTPLSLPVTSGEPASISCRSSQTIVHSNGKTYLDWYLQKPGQSPQLLIYKVSNRASGVPDRFSGSGSGTDFTLKISRVEAEDVGVYYCFQASHVPYTFGGGTKVEIKR
B4: humanized anti-BKB2R antibody H38/L39 (antibody, human IgG2, kappa, V domains shown)
VH: EVQLLESGGGLVQPGGSLKLSCAVSGFTFSDYWMSWVRQAPGKGLEWVSEIRLKSDNYATHYADSVKGRFTISRDDSKNTLYLQMNSLRAEDTAVYYCTRDYYAMEYWGQGTLVTVSS
VL: DVVMTQTPLSLSVTPGQPASISCKSSQTIVHSNGKTYLEWYLQKPGQSPQLLIYKVSNRFSGVPDRFSGSGSGTDFTLKISRVEAEDVGVYYCFQASHVPYTFGQGTKLEIKR
B5: humanized anti-BKB2R antibody H39/L37 (antibody, human IgG2, kappa, V domains shown)
VH: EVKLVESGGGLVQPGGSLRLSCAVSGFTFSDYWMDWVRQAPGKGLEWVAEIRLKSDNYATHYAASVKGRFTISRDDSKSRLYLQMNSLKTEDTAVYYCTRDYYAMEYWGQGTTVTVSS
VL: DIVMTQTPLSLSVTPGQPASISCKSSQTIVHSNGKTYLYWYLQKPGQSPQLLIYKVSSRFSGVPDRFSGSGSGTDFTLKISRVEAEDVGVYYCFQASHVPYTFGQGTKLEIKR

Molecular target: T1, human BKB2R-derived epitope peptide (SEQ ID NO:73), PEG-biotin (human)
T1 sequence (peptide, PEG-biotin (printed as 'Seq ID No. 2-PEG-biotin' in p-0437)): KEYSDEGHNVTAC
Assay: BLI (Octet), peptide on sensor

binding, binds:
B1
B2
B3
B4
B5
